Measurements: PubChem BioAssay AID527 (NMMLSC, 2006)
This is one part of the list.

Experiment: blockers of AIP-driven agr signalling in S. aureus – RNAIII-GFP reporter, flow cytometry, primary screen (AID 527);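 also: 0% = AIP-stimulated control and 100% = unstimulated bacteria without AIP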
Conditions: S. aureus RN6390 RNAIII-GFP reporter, AIP-induced, flow cytometry 3 h; measured here: inhibition of GFP MFI; at 2 µM; stronger effect = higher value

Q: Which inhibition does the source give for Fc1ccccc1NC1CCN(Cc2ccccc2)CC1 here?
A: 0.1%

Q: Which inhibition does the source give for N#CC1(Nc2ccccc2)CCN(CCc2ccccc2)CC1 here?
A: 15.3%
